{"source": "PubChem BioAssay AID1259405 (NCATS, 2018)", "screen": "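Mouse-designed siRNAs used to find CHO productivity engineering targets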 (primary screen)", "cell system": "Chinese hamster CHO-K1 ovary cells with stable secreted eGFP expression", "reagent": "single siRNA against mouse genes, 0.8 pmol siRNA per well (2 µl of 400 nM stock)", "duration": "3 days", "detection": "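Per-well intracellular GFP measured by laser scanning cytometry, plus viability from ATP luminescence, each relative to plate median of non-targeting control wells, in %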", "direction": "GFP, % of control: higher = more GFP per well, higher productivity; viability (ATP), % of control: higher = more viable cells (more ATP)", "call rule": "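a knock-down is called active if GFP reaches 120% or more of non-targeting control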", "note": "The deposit covers about 50,000 reagents; below is a random part of them. About 4,000 of all reagents (8%) count as active. 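Mouse siRNA library applied to hamster cells; one well for each siRNA.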"}
{"Target gene": "Slc7a3 (GeneID 11989)", "PubChem SID": "SID363574936", "GFP, % of control": 63.8, "viability (ATP), % of control": 48, "Call": "inactive"}
{"Target gene": "Slc7a3 (GeneID 11989)", "PubChem SID": "SID363580568", "GFP, % of control": 73.7, "viability (ATP), % of control": 72.8, "Call": "inactive"}
{"Target gene": "Slc7a3 (GeneID 11989)", "PubChem SID": "SID363582680", "GFP, % of control": 75.8, "viability (ATP), % of control": 81.3, "Call": "inactive"}
{"Target gene": "Rhob (GeneID 11852)", "PubChem SID": "SID363570253", "GFP, % of control": 62.2, "viability (ATP), % of control": 73.5, "Call": "inactive"}
{"Target gene": "Rhob (GeneID 11852)", "PubChem SID": "SID363576589", "GFP, % of control": 73.3, "viability (ATP), % of control": 85, "Call": "inactive"}
{"Target gene": "Rhob (GeneID 11852)", "PubChem SID": "SID363579757", "GFP, % of control": 69, "viability (ATP), % of control": 60.4, "Call": "inactive"}
{"Target gene": "Ttf2 (GeneID 74044)", "PubChem SID": "SID363569478", "GFP, % of control": 41.6, "viability (ATP), % of control": 47.9, "Call": "inactive"}
{"Target gene": "Ttf2 (GeneID 74044)", "PubChem SID": "SID363577222", "GFP, % of control": 93.4, "viability (ATP), % of control": 66.1, "Call": "inactive"}
{"Target gene": "Ttf2 (GeneID 74044)", "PubChem SID": "SID363578630", "GFP, % of control": 141, "viability (ATP), % of control": 100, "Call": "active"}
{"Target gene": "Cep112 (GeneID 76380)", "PubChem SID": "SID363540772", "GFP, % of control": 77, "viability (ATP), % of control": 90.2, "Call": "inactive"}
{"Target gene": "Cep112 (GeneID 76380)", "PubChem SID": "SID363543223", "GFP, % of control": 106, "viability (ATP), % of control": 91, "Call": "inactive"}
{"Target gene": "Cep112 (GeneID 76380)", "PubChem SID": "SID363552716", "GFP, % of control": 53.1, "viability (ATP), % of control": 51.1, "Call": "inactive"}
{"Target gene": "Htra3 (GeneID 78558)", "PubChem SID": "SID363574463", "GFP, % of control": 60.3, "viability (ATP), % of control": 84.6, "Call": "inactive"}
{"Target gene": "Htra3 (GeneID 78558)", "PubChem SID": "SID363575519", "GFP, % of control": 89, "viability (ATP), % of control": 85.4, "Call": "inactive"}
{"Target gene": "Htra3 (GeneID 78558)", "PubChem SID": "SID363580095", "GFP, % of control": 76.4, "viability (ATP), % of control": 72.7, "Call": "inactive"}
{"Target gene": "Vti1b (GeneID 53612)", "PubChem SID": "SID363553827", "GFP, % of control": 107, "viability (ATP), % of control": 88.9, "Call": "inactive"}
{"Target gene": "Vti1b (GeneID 53612)", "PubChem SID": "SID363561784", "GFP, % of control": 106, "viability (ATP), % of control": 76.1, "Call": "inactive"}
{"Target gene": "Vti1b (GeneID 53612)", "PubChem SID": "SID363565522", "GFP, % of control": 79.1, "viability (ATP), % of control": 67.7, "Call": "inactive"}
{"Target gene": "Tube1 (GeneID 71924)", "PubChem SID": "SID363572438", "GFP, % of control": 37.3, "viability (ATP), % of control": 86.2, "Call": "inactive"}
{"Target gene": "Tube1 (GeneID 71924)", "PubChem SID": "SID363574198", "GFP, % of control": 40.4, "viability (ATP), % of control": 56.6, "Call": "inactive"}
{"Target gene": "Ap3s1 (GeneID 11777)", "PubChem SID": "SID363547674", "GFP, % of control": 103, "viability (ATP), % of control": 43.1, "Call": "inactive"}
{"Target gene": "Ap3s1 (GeneID 11777)", "PubChem SID": "SID363558443", "GFP, % of control": 76, "viability (ATP), % of control": 52.2, "Call": "inactive"}
{"Target gene": "Ap3s1 (GeneID 11777)", "PubChem SID": "SID363560201", "GFP, % of control": 54.3, "viability (ATP), % of control": 67.3, "Call": "inactive"}
{"Target gene": "Eif1a (GeneID 13664)", "PubChem SID": "SID363569608", "GFP, % of control": 64, "viability (ATP), % of control": 101, "Call": "inactive"}
{"Target gene": "Eif1a (GeneID 13664)", "PubChem SID": "SID363577352", "GFP, % of control": 73.6, "viability (ATP), % of control": 91.6, "Call": "inactive"}
{"Target gene": "Eif1a (GeneID 13664)", "PubChem SID": "SID363578760", "GFP, % of control": 38.2, "viability (ATP), % of control": 68.3, "Call": "inactive"}
{"Target gene": "Cct8l1 (GeneID 242891)", "PubChem SID": "SID363572581", "GFP, % of control": 105, "viability (ATP), % of control": 120, "Call": "inactive"}
{"Target gene": "Cct8l1 (GeneID 242891)", "PubChem SID": "SID363577861", "GFP, % of control": 96.5, "viability (ATP), % of control": 94.4, "Call": "inactive"}
{"Target gene": "Cct8l1 (GeneID 242891)", "PubChem SID": "SID363582085", "GFP, % of control": 87.6, "viability (ATP), % of control": 131, "Call": "inactive"}
{"Target gene": "Prss28 (GeneID 114661)", "PubChem SID": "SID363547201", "GFP, % of control": 80.3, "viability (ATP), % of control": 52.1, "Call": "inactive"}
{"Target gene": "Prss28 (GeneID 114661)", "PubChem SID": "SID363557970", "GFP, % of control": 40.7, "viability (ATP), % of control": 40.7, "Call": "inactive"}
{"Target gene": "Prss28 (GeneID 114661)", "PubChem SID": "SID363559728", "GFP, % of control": 83.3, "viability (ATP), % of control": 62.3, "Call": "inactive"}
{"Target gene": "Tox (GeneID 252838)", "PubChem SID": "SID363556509", "GFP, % of control": 99.9, "viability (ATP), % of control": 89, "Call": "inactive"}
{"Target gene": "Tox (GeneID 252838)", "PubChem SID": "SID363586959", "GFP, % of control": 49.6, "viability (ATP), % of control": 74.9, "Call": "inactive"}
{"Target gene": "Tox (GeneID 252838)", "PubChem SID": "SID363589067", "GFP, % of control": 109, "viability (ATP), % of control": 124, "Call": "inactive"}
{"Target gene": "Riox2 (GeneID 67014)", "PubChem SID": "SID363562343", "GFP, % of control": 77.7, "viability (ATP), % of control": 58.7, "Call": "inactive"}
{"Target gene": "Riox2 (GeneID 67014)", "PubChem SID": "SID363567481", "GFP, % of control": 44.3, "viability (ATP), % of control": 50.9, "Call": "inactive"}
{"Target gene": "Riox2 (GeneID 67014)", "PubChem SID": "SID363584838", "GFP, % of control": 58.2, "viability (ATP), % of control": 57.9, "Call": "inactive"}
{"Target gene": "Phox2b (GeneID 18935)", "PubChem SID": "SID363554468", "GFP, % of control": 41, "viability (ATP), % of control": 37.3, "Call": "inactive"}
{"Target gene": "Phox2b (GeneID 18935)", "PubChem SID": "SID363567915", "GFP, % of control": 42.2, "viability (ATP), % of control": 63.8, "Call": "inactive"}
{"Target gene": "Phox2b (GeneID 18935)", "PubChem SID": "SID363585974", "GFP, % of control": 68.5, "viability (ATP), % of control": 54.8, "Call": "inactive"}

6 entries from above, arranged by “GFP, % of control”, low to high:
{"Target gene": "Cep112 (GeneID 76380)", "PubChem SID": "SID363552716", "GFP, % of control": 53.1, "viability (ATP), % of control": 51.1, "Call": "inactive"}
{"Target gene": "Htra3 (GeneID 78558)", "PubChem SID": "SID363574463", "GFP, % of control": 60.3, "viability (ATP), % of control": 84.6, "Call": "inactive"}
{"Target gene": "Htra3 (GeneID 78558)", "PubChem SID": "SID363580095", "GFP, % of control": 76.4, "viability (ATP), % of control": 72.7, "Call": "inactive"}
{"Target gene": "Cep112 (GeneID 76380)", "PubChem SID": "SID363540772", "GFP, % of control": 77, "viability (ATP), % of control": 90.2, "Call": "inactive"}
{"Target gene": "Htra3 (GeneID 78558)", "PubChem SID": "SID363575519", "GFP, % of control": 89, "viability (ATP), % of control": 85.4, "Call": "inactive"}
{"Target gene": "Cep112 (GeneID 76380)", "PubChem SID": "SID363543223", "GFP, % of control": 106, "viability (ATP), % of control": 91, "Call": "inactive"}
